From paper PMC5871780, “Klf4 glutamylation is required for cell reprogramming and early embryonic development in mice”
The exact form of at least one protein or probe is not confirmed.

Sequences of proteins named here, by UniProt entry; tags and fusion partners are left off. A change or cut given only in a name is not applied to a line headed by its entry.
UniProt Q60793: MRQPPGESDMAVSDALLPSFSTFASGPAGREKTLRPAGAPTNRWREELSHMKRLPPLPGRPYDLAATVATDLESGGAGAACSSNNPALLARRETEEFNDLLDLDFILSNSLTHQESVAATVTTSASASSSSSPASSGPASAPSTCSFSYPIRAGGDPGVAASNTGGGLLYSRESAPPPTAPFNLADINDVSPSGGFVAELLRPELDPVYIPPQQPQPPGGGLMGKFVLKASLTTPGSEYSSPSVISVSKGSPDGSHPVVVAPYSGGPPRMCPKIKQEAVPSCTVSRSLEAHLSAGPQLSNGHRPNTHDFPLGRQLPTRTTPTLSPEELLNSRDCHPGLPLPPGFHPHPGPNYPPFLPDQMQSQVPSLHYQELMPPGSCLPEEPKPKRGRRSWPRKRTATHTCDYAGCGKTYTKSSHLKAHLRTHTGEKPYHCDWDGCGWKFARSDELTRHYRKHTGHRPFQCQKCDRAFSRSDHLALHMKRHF

Biological target: GST-Klf4-K232R (Mus musculus) (UniProt Q60793)
Test: EMSA
Conditions: affinity comparable to wt; LightShift Chemiluminescent EMSA Kit (Thermo Scientific), per manufacturer; pH and temperature not stated; recombinant protein; protein details: GST (N-term, pGEX-6P-1)

GCCGCCTGGGTGCCTGGGAGAATAGGGGGTGGGTAGGGTAGGAGGCTTG (double strand) [Nanog promoter probe]
binding result: binds
